Measurements published in PMC9630114.
Results are given in words; binding and its absence hold for the method and conditions named. Binding seen in cells or lysates may run through a third protein. For part of these data: Binding can be weak; no strength is given. For part of these data: Tags and fused reporters may be left off the sequences shown.

By UniProt entry, the sequences of proteins in these tests, tags left out. Where a name states a change or a piece, a line headed by the entry shows the natural chain unless it says otherwise. Residues count along the entry.
UniProt Q9UM00: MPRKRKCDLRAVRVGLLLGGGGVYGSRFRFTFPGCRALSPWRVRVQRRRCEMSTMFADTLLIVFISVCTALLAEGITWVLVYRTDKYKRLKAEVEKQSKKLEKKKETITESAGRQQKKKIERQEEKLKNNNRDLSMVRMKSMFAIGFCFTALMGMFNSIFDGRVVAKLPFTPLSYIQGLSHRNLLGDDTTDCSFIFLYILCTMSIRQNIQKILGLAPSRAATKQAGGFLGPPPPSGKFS
UniProt Q969V3, residues 43-563: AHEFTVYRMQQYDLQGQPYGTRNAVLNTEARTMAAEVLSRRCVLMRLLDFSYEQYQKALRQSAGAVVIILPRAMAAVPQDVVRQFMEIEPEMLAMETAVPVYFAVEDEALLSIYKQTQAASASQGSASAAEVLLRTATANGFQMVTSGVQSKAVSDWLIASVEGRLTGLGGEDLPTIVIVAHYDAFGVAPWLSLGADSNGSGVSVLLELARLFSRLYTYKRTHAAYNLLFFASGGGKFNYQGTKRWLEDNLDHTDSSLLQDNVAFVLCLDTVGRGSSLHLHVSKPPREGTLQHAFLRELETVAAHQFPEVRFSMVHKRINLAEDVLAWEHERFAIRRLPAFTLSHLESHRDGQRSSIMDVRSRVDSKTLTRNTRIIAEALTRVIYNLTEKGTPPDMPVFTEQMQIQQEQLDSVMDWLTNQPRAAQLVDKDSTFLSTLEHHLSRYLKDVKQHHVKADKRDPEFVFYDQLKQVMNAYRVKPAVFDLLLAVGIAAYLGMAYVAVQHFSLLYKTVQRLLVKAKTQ
UniProt Q9BUV8: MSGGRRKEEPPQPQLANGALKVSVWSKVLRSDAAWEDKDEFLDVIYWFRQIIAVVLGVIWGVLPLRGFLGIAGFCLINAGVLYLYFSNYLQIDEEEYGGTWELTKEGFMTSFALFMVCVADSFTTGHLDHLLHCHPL
UniProt Q15155: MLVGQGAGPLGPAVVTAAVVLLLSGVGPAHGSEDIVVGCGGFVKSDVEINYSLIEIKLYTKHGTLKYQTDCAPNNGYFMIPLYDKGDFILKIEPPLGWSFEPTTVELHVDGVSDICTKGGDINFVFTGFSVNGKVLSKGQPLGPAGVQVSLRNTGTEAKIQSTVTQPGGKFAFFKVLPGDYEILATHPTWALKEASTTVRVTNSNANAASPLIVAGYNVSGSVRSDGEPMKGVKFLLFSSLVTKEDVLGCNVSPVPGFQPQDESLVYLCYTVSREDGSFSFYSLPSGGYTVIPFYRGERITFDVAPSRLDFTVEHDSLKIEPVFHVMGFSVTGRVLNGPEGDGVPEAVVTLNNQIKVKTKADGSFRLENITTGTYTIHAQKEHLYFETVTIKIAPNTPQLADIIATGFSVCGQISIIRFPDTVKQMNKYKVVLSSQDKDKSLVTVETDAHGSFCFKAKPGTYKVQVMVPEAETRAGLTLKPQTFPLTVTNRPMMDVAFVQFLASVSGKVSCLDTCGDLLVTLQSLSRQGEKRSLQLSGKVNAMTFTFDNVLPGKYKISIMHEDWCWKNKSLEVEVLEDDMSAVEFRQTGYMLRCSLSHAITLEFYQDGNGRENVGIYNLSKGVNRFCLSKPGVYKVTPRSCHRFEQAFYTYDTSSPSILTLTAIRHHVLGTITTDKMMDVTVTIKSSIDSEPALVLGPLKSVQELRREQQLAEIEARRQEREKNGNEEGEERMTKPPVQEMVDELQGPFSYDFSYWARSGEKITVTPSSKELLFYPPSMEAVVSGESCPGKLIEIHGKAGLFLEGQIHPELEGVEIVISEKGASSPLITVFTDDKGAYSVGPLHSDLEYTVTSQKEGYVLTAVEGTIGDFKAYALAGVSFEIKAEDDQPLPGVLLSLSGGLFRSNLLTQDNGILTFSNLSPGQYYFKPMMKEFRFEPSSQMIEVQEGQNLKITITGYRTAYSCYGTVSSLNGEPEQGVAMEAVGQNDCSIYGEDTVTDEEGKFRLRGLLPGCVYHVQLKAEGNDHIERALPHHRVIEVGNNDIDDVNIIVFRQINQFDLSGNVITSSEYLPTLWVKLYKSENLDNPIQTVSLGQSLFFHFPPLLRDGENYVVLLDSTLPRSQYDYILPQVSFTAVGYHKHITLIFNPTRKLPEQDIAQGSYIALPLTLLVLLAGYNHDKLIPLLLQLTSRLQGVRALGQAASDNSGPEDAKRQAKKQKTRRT

Experiments:
[1] = target: N-terminally Flag-tagged TMCO1 (UniProt Q9UM00); assay: co-IP; anti-Flag (M2 beads) immunoprecipitation from nuclease-treated, digitonin-solubilized HEK293 microsomes, overnight at 4 °C, Flag-peptide elution, eluate pelleted through a sucrose cushion; ribosome-bound fraction (pellet); immunoblot
[2] = target: N-terminally Flag-tagged nicalin (UniProt Q969V3); assay: as above
[3] = target: T1, stalled, Flag-tagged YIPF1 construct truncated at position 277 (UniProt Q9Y548); assay: co-IP; stalled N-terminally Flag-tagged nascent chains translated in RRL with HEK293 rough microsomes (wild type; in some panels ΔTN, ΔTC, ΔS or single knockouts), membranes nuclease-treated and digitonin-solubilized, anti-Flag immunoprecipitation, Flag-peptide elution, ribosome-nascent chain complexes pelleted through a sucrose cushion; immunoblot
T1 sequence: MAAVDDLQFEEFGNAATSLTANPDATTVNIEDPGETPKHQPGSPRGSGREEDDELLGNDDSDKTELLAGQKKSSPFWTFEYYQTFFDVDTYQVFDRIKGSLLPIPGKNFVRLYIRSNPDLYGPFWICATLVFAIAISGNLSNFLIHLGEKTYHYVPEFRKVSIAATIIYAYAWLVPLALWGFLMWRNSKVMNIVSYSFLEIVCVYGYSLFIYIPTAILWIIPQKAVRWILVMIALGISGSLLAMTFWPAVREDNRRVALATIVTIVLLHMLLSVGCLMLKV

[4] = target: T2, stalled, Flag-tagged YIPF1 construct truncated at position 183 (UniProt Q9Y548); assay: as above
T2 sequence: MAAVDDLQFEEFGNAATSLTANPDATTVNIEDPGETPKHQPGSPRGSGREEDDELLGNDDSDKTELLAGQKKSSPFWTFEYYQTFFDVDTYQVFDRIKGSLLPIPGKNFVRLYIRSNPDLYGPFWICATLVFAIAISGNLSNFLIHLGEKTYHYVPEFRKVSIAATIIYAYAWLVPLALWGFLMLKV

binding [1] | binding [2] | binding [3] | binding [4] | Substance
binds |  |  |  | C20Orf24 (from UniProt Q9BUV8 1-137)
 | binds | binds | no binding | NOMO (from UniProt Q15155)
 |  | binds | no binding | TMCO1 (from UniProt Q9UM00)
